Results: patent US8741578B2, “Methods of detecting chronic lymphocytic leukemia with Hsp90 and ZAP-70” (The Regents of the University of California, priority 2004, dated 2014)
At least one compound was matched to its structure with a doubt left.

Key:
ZAP-70 in CLL cells = test: ZAP-70 expression in CLL cells after treatment (intracellular staining, immunoblot); assay type: cell-based, human; details: CLL cells treated in vitro
CLL cells = test: Apoptosis of primary CLL cells by flow cytometry (DiOC6/PI); details: CLL cells treated in vitro

**Q.** Which “Effect on ZAP-70 expression in CLL cells (words)” value (ZAP-70 in CLL cells) does the source give for `Nc1nc(F)nc2c1ncn2[C@@H]1O[C@H](COP(=O)(O)O)[C@@H](O)[C@@H]1O` [Fludara, 2-Fluoro-Ara-A] here?
**A.** did not induced down-regulation of ZAP-70

**Q.** What about the “Effect on ZAP-70 expression in CLL cells (words)” value (ZAP-70 in CLL cells; listed as 2-Fluoro-Ara-A) of the same compound?
**A.** did not induced changes in ZAP-70 expression

**Q.** And the “Induction of apoptosis in CLL cells (words)” value (CLL cells)?
**A.** promoting apoptosis

**Q.** And the “Induction of apoptosis in CLL cells (words)” value (CLL cells; listed as 2-Fluoro-Ara-A)?
**A.** inducing apoptosis
